From PMC12503277
No constants are given. Whether binding was seen depends on the method and setting. Binding seen in cells or lysates may run through a third protein. Some results given as binding are weak or reduced against the parent protein; the word gives no strength. Where a sequence is shown, tags or fusion partners need not be part of it.

Chains of the proteins cited; added tags and fusions are not shown.
UniProt Q8N884: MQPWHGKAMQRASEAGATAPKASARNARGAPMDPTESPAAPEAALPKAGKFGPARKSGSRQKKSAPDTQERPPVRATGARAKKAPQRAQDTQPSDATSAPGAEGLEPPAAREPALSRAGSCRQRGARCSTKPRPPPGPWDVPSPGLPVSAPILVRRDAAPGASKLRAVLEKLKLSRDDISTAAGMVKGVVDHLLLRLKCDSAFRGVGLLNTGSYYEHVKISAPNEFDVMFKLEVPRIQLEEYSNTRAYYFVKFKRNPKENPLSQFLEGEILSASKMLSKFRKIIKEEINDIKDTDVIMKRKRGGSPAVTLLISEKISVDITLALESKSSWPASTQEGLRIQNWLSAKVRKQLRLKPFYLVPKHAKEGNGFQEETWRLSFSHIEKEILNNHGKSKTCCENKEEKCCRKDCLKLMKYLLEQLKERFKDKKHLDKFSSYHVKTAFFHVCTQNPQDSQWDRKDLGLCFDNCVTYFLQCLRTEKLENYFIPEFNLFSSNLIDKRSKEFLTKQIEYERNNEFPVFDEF

Legend:
[1] = molecular target: T1, Flag-DDX21 (full-length) (human) (UniProt Q9NR30); assay: co-IP
T1 sequence: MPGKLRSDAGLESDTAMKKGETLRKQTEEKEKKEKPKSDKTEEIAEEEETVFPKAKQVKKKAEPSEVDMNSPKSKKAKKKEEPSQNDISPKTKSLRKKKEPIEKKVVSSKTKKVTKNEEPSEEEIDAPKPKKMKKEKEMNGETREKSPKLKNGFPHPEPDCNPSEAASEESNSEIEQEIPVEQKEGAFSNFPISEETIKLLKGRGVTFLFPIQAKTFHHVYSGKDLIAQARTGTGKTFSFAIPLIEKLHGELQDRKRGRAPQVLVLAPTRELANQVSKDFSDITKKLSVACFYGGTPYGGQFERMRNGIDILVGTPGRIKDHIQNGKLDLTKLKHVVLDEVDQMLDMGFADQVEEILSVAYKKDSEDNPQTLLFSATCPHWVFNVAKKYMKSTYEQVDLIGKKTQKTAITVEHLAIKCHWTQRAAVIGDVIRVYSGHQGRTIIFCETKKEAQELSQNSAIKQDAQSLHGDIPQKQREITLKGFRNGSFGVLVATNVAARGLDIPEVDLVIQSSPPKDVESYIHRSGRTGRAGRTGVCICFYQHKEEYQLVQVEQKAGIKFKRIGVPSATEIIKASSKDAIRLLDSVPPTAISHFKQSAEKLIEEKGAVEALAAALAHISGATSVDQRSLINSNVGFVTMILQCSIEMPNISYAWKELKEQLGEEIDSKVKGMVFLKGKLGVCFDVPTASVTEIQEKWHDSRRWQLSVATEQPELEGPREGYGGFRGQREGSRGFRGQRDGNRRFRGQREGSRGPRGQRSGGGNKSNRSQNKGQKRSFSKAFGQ

HA-DDX21 (human) = molecular target: T2, HA-DDX21 (human) (UniProt Q9NR30); assay: co-IP
T2 sequence: T1 sequence

| binding [1] | binding (HA-DDX21 (human)) | Substance |
| --- | --- | --- |
| binds | – | HA-cGAS (cyclic GMP-AMP synthase) (from UniProt Q8N884 1-522) |
| – | binds | Flag-cGAS (cyclic GMP-AMP synthase) (from UniProt Q8N884 1-522) |
